Data: patent US9234186B2, “Star-worm luciferase” (OLYMPUS CORPORATION, priority 2011, dated 2016)

Assay: Measurement of luminescence spectra of purified luciferase at various pHs
Assay type: biochemical

B1: star-worm luciferase: Novel luciferase cloned from star-worm Diplocladon sp. 1, amino acid sequence SEQ ID NO: 1 (protein, listed as Diplocladon sp.)
chain: MPNEIVLHGAKPRDPLDLGTAGSQLFRSLTQFSYLREALVDAHTEQVVSYADILENSCRLAICFEKYGLRQNSVIAVCSENSAIFFYPVIAALYMGIITATVNDNYTERELFDTLNISKPELVFCSKKAIKNLTQLKNHIDFIKKLVVLDSDEDIGEVESLANFMKRYSESVIDVRNFKPRDFDAKEQVALIMSSSGTTGLPKGVVLTHRNLSVRFVHCKDPLFGTRTVPSTSILSIVPFHHAFGMFTTLSYFIVGLRVILLKRFEEEFFLSTIEKYRIPTIVLAPPVMVFLAKSPLVDQYDVSSIREVATGGAPVGIEVAEAVAKRLKINGILQGYGLTETCCAVLITPHDHVKTGSTGKVAPYVQAKVVDLSTGKSLGPNKRGELCFKSEIIMKGYFNNIKATEEAIDKEGWLHSGDVGYYDEDGHFYVVDRLKELIKYKGYQVAPAELEWLLLQHPAIKDAGVTGVPDEAAGELPGACIVLEEGHSLTEQEVIEYVAERVSPTKRIRGGVVFVDDIPKGATGKLVRSELRRMLSQKKSKL
For B1, the “maximum luminous wavelength range” value (over the entire pH range of 5.5 to 8.0) was 557-562 nm, the maximum luminous wavelength (pH 5.5) was roughly 557 nm and the maximum luminous wavelength (pH 6.0) was roughly 557 nm. For the same molecule, the maximum luminous wavelength (pH 6.5) was roughly 557 nm, the maximum luminous wavelength (pH 7.0) was roughly 557 nm and the maximum luminous wavelength (pH 7.5) was “around 559 nm”. For the same molecule, the maximum luminous wavelength (pH 8.0) was “around 562 nm” and the “change of the maximum luminous wavelength” value (within the range of pH 5.5-8.0) was no more than 5 nm.
